Measured values published in publication PMC13534636.
The exact form of at least one protein or probe is not confirmed. For some assays here: At least one verdict rests on a figure or table, not on a statement of the authors.

How the values were obtained:
FUS + ETV1 + MEF2A = experiment: EMSA; settings: FUS 300 nM, MEF2A 50 nM, ETV1 120 nM, results similar to ETV5; 20 mM HEPES-KOH pH 7.5, 5 mM MgCl2, 50 mM KCl, 10 mM DTT, 10% glycerol; 5 nM probe, 25 min at 25 C; 6% PAGE in 0.5x TBE; commercial protein; label: 5'-FAM on sense strand
FUS + ETV5 + MEF2A = experiment: EMSA; settings: FUS 300 nM, MEF2A 50 nM, ETV5 60-240 nM, smear at lower ETV5 than ETV5 alone; 20 mM HEPES-KOH pH 7.5, 5 mM MgCl2, 50 mM KCl, 10 mM DTT, 10% glycerol; 5 nM probe, 25 min at 25 C; 6% PAGE in 0.5x TBE; commercial protein; label: 5'-FAM on sense strand

“TTTTAACGGCGTGGTTTGAATGTTGCACTGGGTCCACCTGCCTCTGTCTCCGGCTGCGGGGACGTTCGGA (double strand) [MRPL30 probe (WT)]”: binds (FUS + ETV1 + MEF2A); binds (FUS + ETV5 + MEF2A).
